# Measured data: PubChem BioAssay AID1224830 (NIAID, 2016)
# Screen: 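Host factors that control LPS-induced TNF expression in human macrophages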 (primary screen)
# Cells: human THP-1 monocytic leukaemia cells, TNF dual-luciferase reporter clone, PMA-differentiated to macrophage-like cells
# Reagent: siRNA pool against human genes, 50 nM
# Timing: LPS for 4 h, given about 3 days after siRNA transfection
# Challenge: bacterial LPS (TLR4 ligand), 10 ng/ml
# Measurement: 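Ratio of firefly to renilla light, scaled to the plate median and expressed as a robust z-score per replicate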
# Reading the numbers: TNF reporter robust z-score: higher = stronger TNF reporter response to LPS
# Call rule: 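Each well counts as active if its z-score is over 2.8 or under -1.5; controls are left without a call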
# In all, the deposit lists about 18,000 reagents; this is a part drawn at random. Of all reagents, about 2,900 (16%) are marked active. 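Calls are made per well; low scores hint the gene aids the LPS response, high scores that it dampens it.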 Unmarked entries are inactive. Repeated entries: four replicate wells of each siRNA pool. No sequences are given here.
target gene,TNF reporter robust z-score
SOCS3,0.24
SOCS3,-0.04
SOCS3,0.05
SOCS3,5.01 (active)
WDR89,-1.79 (active)
WDR89,-0.5
WDR89,-0.46
WDR89,-1.08
PDIA6,-0.58
PDIA6,-0.63
PDIA6,-1.03
PDIA6,-0.11
LIM2,-1.66 (active)
LIM2,0.87
LIM2,-0.79
LIM2,-0.33
PTRH2,-1.01
PTRH2,0.26
PTRH2,0.08
PTRH2,0.1
USP17L2,-0.7
USP17L2,1.33
USP17L2,0.01
USP17L2,0.49
ANKRD12,-0.94
ANKRD12,-0.34
ANKRD12,0.88
ANKRD12,-0.84
CALCOCO2,0.02
CALCOCO2,0.34
CALCOCO2,-0.57
CALCOCO2,-0.24
PPM1M,-1.24
PPM1M,-1.13
PPM1M,-1.84 (active)
EFTUD2,-1.26
EFTUD2,-1.28
EFTUD2,1.13
EFTUD2,-0.37
ANKIB1,-1.33
ANKIB1,-0.58
ANKIB1,-0.32
ANKIB1,0.37
GUCA2A,0.57
GUCA2A,0.05
GUCA2A,0.71
GUCA2A,1.56
CEP63,-1.28
CEP63,0.03
CEP63,-0.68
CEP63,-0.96
TMPRSS3,-1.23
TMPRSS3,-0.59
TMPRSS3,0.07
TMPRSS3,-0.49
ATP6V1B2,-1.81 (active)
ATP6V1B2,-1.39
ATP6V1B2,-1.48
ATP6V1B2,-1.25
UNC119,0.26
UNC119,-0.24
UNC119,-0.2
UNC119,2.84 (active)
TMED8,-1.79 (active)
TMED8,-1.29
TMED8,-1.43
TMED8,-1.07
ACTN1,-0.43
ACTN1,0.01
ACTN1,-0.46
ACTN1,0.04
PIP5K1B,0.61
PIP5K1B,-0.79
PIP5K1B,-0.37
PIP5K1B,-0.32
NRXN2,1.04
NRXN2,1.1
NRXN2,1.5
NRXN2,-0.95
COPE,1.47
COPE,0.67
COPE,-0.01
COPE,0.79
IL2,-0.99
IL2,-0.47
IL2,-0.84
IL2,-0.63
KCNIP1,-0.47
KCNIP1,1.9
KCNIP1,1.69
KCNIP1,1.92
DDX19A,1.08
DDX19A,-0.16
DDX19A,-0.43
DDX19A,0.01
SULT1E1,-0.8
SULT1E1,-0.24
SULT1E1,-0.15
SULT1E1,1.14
GPATCH4,2.9 (active)
GPATCH4,0.58
GPATCH4,0.01
MYO1F,-1.44
MYO1F,-1.19
MYO1F,-1.27
MYO1F,-1.11
BACC1,0.29
BACC1,1.29
BACC1,0.01
BACC1,1.69
